Experimental data reported in paper PMC6731588.

The chains behind the UniProt entries cited, without tags or fusion partners. Where a name states a change or a piece, a line headed by the entry shows the natural chain unless it says otherwise.
UniProt P46821: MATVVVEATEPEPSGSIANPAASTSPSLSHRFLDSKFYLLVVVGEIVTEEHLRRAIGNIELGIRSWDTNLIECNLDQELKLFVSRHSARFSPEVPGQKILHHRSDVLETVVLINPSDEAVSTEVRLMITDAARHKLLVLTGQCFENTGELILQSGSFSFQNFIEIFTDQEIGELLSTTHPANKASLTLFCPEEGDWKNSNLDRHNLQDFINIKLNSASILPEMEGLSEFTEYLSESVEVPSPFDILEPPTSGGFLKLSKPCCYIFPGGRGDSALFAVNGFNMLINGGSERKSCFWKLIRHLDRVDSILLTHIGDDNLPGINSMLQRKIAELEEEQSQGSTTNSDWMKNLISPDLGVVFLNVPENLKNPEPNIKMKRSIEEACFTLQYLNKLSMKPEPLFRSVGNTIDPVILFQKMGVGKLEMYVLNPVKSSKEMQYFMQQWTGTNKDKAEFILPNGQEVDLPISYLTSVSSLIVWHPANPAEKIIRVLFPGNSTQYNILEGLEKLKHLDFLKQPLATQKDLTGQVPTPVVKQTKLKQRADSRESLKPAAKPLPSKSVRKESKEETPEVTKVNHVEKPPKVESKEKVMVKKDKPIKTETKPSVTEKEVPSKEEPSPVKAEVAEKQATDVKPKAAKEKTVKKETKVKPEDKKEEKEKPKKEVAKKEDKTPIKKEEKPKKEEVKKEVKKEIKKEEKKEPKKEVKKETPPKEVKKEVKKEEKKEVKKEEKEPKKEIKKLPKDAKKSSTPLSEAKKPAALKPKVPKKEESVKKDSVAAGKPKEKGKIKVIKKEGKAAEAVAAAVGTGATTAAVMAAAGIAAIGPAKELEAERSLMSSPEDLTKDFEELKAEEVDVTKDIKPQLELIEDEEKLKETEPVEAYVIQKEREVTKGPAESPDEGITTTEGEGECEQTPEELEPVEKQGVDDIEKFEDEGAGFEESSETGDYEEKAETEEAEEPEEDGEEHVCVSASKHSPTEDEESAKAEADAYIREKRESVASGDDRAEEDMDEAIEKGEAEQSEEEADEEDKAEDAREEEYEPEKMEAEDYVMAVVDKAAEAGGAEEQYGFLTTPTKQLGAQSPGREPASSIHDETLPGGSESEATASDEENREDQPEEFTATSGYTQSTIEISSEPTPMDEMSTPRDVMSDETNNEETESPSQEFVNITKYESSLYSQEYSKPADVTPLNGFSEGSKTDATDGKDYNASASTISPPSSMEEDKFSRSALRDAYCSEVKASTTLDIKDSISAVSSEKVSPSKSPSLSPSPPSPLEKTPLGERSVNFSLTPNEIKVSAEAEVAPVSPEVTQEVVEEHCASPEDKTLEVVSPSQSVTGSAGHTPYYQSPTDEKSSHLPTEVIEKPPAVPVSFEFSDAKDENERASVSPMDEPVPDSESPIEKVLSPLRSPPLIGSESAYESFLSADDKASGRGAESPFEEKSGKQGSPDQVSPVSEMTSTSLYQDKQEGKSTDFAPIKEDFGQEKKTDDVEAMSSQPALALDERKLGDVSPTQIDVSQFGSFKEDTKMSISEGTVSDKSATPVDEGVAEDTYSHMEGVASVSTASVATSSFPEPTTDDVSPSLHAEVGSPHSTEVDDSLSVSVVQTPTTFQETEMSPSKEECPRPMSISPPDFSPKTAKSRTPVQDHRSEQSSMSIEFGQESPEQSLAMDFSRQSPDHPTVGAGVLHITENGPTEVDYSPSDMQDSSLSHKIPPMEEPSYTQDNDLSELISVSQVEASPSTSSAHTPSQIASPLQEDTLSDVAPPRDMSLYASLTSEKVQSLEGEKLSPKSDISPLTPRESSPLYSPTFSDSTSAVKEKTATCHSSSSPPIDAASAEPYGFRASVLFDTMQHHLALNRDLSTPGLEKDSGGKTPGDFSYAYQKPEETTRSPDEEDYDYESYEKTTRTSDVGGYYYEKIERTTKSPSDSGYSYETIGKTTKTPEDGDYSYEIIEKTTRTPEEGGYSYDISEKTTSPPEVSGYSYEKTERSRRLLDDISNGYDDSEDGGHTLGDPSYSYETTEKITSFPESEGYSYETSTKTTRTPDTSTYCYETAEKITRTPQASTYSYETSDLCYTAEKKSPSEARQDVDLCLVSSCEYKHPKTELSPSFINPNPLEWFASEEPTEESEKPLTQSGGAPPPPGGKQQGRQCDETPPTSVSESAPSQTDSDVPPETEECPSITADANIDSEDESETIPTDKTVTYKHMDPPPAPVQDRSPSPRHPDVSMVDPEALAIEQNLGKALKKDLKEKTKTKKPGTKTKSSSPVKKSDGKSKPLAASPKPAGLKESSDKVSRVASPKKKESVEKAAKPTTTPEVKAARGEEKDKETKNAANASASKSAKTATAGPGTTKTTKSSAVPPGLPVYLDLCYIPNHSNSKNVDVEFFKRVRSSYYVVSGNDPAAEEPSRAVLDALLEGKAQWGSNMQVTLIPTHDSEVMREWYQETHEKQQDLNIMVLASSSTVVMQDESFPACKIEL

Target: heterogeneous nuclear ribonucleoprotein K (human (endogenous in A549)) (UniProt P61978)
Experiment: affinity purification with mass spectrometry; A549 cell lysate (1 mg) immunoprecipitated with anti-hnRNP K antibody or isotype matched IgG, Protein A/G Plus-agarose, 4 °C; SDS-PAGE, silver staining, bands cut out, in-gel digestion, LC-MS/MS

Q: Which binding does the source give for “microtubule-associated protein 1B light chain (MAP 1B-LC1) (from UniProt P46821)” here?
A: binds

These are yes or no findings as the source states them, for the method shown. In cells and extracts the contact can be indirect. Here binding means that the protein was enriched with, or labelled near, the bait; the list need not be complete.
